Measured values taken from patent US20100092505A1 (priority 2005, published 2010).
Where no end group is shown, it is not given here. The star is where a group is joined. Biotin = O=C1N[C@H]2[C@H](CS[C@H]2CCCCC(=O)*)N1

Assay: general procedure: Fmoc solid-phase peptide synthesis; Fmoc-Linker AM-Champion, 1% cross-linked (Biosearch Technologies), PEG-PS based resin with modified Rink linker; HBTU/DIEA
Conditions: for oxidative folding yield: oxidative folding step, overall yield of the oxidation reaction, several disulfide bridges, sequence written open

Row | Substance | oxidative folding yield | final HPLC purity (whole synthesis, analytical HPLC, Phenomenex Jupiter C4 column)
1 | (Biotin-CCIPN17)3 | more than 80% | –
2 | (CCGGIKKEIEAIKKEQEAIKKKIEAIEKLLQLTVWGIKQLQARIL)3 (disulfide-linked trimer) | more than 80% | –
3 | (CCIPN17)3 | more than 80% | –
4 | Biotin-GCCGGIKKEIEAIKKEQEAIKKKIEAIEK (cysteine pairing not given here) | – | purity 70%
